Data published in paper PMC6182170.
Results are given in words; binding and its absence hold for the method and conditions named.

By UniProt entry, the sequences of proteins in these tests, tags left out. Where a name states a change or a piece, a line headed by the entry shows the natural chain unless it says otherwise.
UniProt Q22618: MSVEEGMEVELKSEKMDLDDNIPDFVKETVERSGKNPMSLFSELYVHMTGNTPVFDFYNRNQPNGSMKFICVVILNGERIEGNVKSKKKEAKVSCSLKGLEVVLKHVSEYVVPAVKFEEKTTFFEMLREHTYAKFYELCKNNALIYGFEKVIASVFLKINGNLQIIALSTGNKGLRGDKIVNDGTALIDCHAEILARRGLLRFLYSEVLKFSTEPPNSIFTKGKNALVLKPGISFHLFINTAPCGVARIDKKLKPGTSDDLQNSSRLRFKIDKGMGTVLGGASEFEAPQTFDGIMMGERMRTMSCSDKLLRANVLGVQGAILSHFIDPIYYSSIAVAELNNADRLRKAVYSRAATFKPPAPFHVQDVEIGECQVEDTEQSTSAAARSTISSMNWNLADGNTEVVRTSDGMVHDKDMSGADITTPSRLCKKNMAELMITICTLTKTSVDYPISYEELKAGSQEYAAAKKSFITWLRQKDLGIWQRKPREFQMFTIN
UniProt Q9U3D6: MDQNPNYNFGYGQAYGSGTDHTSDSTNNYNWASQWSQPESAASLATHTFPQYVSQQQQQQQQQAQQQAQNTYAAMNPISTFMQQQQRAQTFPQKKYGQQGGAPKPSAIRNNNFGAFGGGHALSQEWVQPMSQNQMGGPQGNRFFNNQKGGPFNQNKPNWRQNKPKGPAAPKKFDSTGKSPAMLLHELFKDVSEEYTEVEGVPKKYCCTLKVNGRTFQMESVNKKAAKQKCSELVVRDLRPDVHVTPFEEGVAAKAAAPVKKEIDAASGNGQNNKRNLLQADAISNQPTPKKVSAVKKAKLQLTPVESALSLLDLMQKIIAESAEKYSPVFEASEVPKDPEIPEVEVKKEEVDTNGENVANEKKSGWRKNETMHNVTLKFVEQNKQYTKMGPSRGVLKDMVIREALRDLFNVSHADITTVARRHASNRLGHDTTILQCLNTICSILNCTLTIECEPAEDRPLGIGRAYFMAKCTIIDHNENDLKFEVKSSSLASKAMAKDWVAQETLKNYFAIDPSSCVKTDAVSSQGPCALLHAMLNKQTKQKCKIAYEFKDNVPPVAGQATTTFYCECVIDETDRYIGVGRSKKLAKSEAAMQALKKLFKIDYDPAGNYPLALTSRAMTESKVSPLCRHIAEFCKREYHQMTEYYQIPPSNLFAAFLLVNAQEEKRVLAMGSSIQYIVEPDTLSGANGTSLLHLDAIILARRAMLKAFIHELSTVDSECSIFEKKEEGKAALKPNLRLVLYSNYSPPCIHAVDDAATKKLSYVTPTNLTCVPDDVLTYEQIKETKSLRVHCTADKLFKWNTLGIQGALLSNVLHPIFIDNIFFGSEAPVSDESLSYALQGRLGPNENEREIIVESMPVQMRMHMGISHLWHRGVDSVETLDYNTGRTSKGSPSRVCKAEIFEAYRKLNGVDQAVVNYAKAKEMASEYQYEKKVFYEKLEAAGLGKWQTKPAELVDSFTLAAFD

Biological target: Recombinant WT ADR-2 (C. elegans) (UniProt Q22618)
Test: condition: 3 nM ADR-1 protein; 5 nM ADR-2 loaded on the beads; pull-down; in vitro pulldown: recombinant ADR-2 (5 nM) held on anti-rabbit IgG Dynabeads by ADR-2 antibody PA6496, 4°C, BSA block; ADR-1 proteins (3 nM) added in EMSA buffer (50 mM KCl, 10 mM Tris-HCl pH 8.0, 10% glycerol, 1 mM MgCl2) for 1 h, with or without 46 bp dsRNA (0-10 nM); also after micrococcal nuclease treatment of the WT proteins; immunoblot with ADR-1 and ADR-2 antibodies; both purified

In the case of “Recombinant ADR-1 dsRBD1 + dsRBD2 double mutant (KKxxK into EAxxA in both dsRBDs) (from UniProt Q9U3D6)”, the binding was “no binding”.
